Data published in publication PMC6541591.

Target: AKT (human (endogenous in MCF7 and MDA-MB-231))
Assay: co-IP; competitive co-IP: lysates of stably transfected MCF7 and MDA-MB-231 cells with or without TC2N overexpression, IP with AKT or EBP1 antibodies, WB with EBP1 or AKT antibodies; normal IgG as negative control

B1: EBP1 (protein, UniProt Q9UQ80 1-394)
chain: MSGEDEQQEQTIAEDLVVTKYKMGGDIANRVLRSLVEASSSGVSVLSLCEKGDAMIMEETGKIFKKEKEMKKGIAFPTSISVNNCVCHFSPLKSDQDYILKEGDLVKIDLGVHVDGFIANVAHTFVVDVAQGTQVTGRKADVIKAAHLCAEAALRLVKPGNQNTQVTEAWNKVAHSFNCTPIEGMLSHQLKQHVIDGEKTIIQNPTDQQKKDHEKAEFEVHEVYAVDVLVSSGEGKAKDAGQRTTIYKRDPSKQYGLKMKTSRAFFSEVERRFDAMPFTLRAFEDEKKARMGVVECAKHELLQPFNVLYEKEGEFVAQFKFTVLLMPNGPMRITSGPFEPDLYKSEMEVQDAELKALLQSSASRKTQKKKKKKASKTAENATSGETLEENEAGD
binding: binds

No constants are given. Whether binding was seen depends on the method and setting. In cells and extracts the contact can be indirect. Binding can be weak; no strength is given.
